One test has as its target 3Flag-p85α (UniProt P26450). Description: affinity purification with mass spectrometry; HL-1/HEK293T cells transfected with GV314-3Flag-TRIM25 or GV314-3Flag-p85α for 48 h; lysed in Co-IP buffer (50 mM Tris-HCl, 150 mM NaCl, 5 mM EDTA, 1% NP-40, pH 7.6); anti-Flag affinity gel overnight at 4 °C; bound proteins analysed by mass spectrometry.
The target in test [1] is 3Flag-TRIM25 (tripartite motif 25) (UniProt Q61510). Described as above.

By UniProt entry, the sequences of proteins in these tests, tags left out.
UniProt P26450: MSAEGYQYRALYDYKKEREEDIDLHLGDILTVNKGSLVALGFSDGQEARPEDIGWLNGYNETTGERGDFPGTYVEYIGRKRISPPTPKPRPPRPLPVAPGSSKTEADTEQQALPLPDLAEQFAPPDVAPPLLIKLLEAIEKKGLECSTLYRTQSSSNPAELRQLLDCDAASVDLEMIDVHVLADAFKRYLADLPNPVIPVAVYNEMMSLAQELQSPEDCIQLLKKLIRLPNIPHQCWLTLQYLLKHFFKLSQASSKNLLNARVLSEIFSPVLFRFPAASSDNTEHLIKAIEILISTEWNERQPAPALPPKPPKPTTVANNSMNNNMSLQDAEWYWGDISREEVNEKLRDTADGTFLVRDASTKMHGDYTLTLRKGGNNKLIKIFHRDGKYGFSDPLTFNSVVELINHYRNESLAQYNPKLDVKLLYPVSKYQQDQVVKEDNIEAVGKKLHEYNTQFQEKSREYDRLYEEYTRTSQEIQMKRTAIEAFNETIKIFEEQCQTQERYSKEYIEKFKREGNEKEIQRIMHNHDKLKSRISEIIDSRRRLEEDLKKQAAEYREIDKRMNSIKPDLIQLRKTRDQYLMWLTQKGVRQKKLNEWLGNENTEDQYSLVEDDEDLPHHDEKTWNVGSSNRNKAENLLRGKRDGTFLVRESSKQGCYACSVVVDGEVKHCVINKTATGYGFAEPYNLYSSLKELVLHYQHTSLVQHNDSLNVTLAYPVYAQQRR
UniProt Q61510: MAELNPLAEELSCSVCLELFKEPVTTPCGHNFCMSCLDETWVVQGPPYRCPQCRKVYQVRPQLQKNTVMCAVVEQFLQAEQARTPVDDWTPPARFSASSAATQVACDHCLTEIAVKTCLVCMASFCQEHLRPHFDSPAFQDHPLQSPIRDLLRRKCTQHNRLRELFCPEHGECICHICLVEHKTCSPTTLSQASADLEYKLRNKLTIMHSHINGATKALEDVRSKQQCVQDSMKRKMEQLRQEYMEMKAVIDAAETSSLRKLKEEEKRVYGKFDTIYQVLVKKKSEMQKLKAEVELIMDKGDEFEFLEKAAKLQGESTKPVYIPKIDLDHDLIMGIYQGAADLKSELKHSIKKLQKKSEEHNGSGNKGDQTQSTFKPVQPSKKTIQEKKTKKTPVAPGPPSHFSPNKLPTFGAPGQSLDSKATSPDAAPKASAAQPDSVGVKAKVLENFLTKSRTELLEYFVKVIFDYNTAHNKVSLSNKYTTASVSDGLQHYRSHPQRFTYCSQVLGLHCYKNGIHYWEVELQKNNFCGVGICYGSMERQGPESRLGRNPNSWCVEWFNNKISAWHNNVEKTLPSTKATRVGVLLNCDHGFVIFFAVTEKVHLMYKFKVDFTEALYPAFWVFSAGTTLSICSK
UniProt Q14258: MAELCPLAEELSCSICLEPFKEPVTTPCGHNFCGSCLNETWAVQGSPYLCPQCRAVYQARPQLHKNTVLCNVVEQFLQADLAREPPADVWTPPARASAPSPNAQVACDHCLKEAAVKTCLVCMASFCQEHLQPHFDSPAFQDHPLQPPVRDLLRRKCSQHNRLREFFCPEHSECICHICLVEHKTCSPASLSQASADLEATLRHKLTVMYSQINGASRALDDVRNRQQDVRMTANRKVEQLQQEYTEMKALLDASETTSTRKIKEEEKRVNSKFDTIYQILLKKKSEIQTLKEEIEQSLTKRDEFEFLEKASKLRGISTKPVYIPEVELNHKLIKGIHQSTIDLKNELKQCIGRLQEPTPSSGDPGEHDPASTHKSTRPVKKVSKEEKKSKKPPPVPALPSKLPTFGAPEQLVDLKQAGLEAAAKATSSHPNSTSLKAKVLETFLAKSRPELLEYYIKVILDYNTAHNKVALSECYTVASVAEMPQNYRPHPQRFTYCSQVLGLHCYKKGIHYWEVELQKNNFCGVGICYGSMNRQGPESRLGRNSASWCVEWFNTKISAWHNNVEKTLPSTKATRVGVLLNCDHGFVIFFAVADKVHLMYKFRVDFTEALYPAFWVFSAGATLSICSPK

These are yes or no findings as the source states them, for the method shown. In cells and extracts the contact can be indirect. A yes stands for co-enrichment or nearness to the bait. Other partners may have been found.

On to “TRIM25, endogenous in HEK293T cells (from UniProt Q14258 1-630)”, for which the binding result in the test with 3Flag-p85α is “binds”. In the case of “p85α (regulatory subunit of PI3K), endogenous in HL-1 cells (from UniProt P26450 1-724)”, the binding result in test [1] is on record as “binds”.

The values above are taken from article PMC9308790.
